Results reported in article doi:10.1101/2023.07.19.549485.
No constants are given. Whether binding was seen depends on the method and setting. In cells and extracts the contact can be indirect. A result given as binding can be weak or reduced; the word gives no strength.

Experiments:
[1] = target: PUF1-HA (PUF1 fused to an HA-tag) (P. falciparum) (UniProt Q8I3S3); experiment: co-IP
[2] = target: ZNF4-HA (C3H1 zinc finger protein ZNF4, HA-tagged) (P. falciparum) (UniProt Q8II18); experiment: co-IP

For “MD3 (male development 3), endogenous (from UniProt O97271)”, the binding [1] was “binds” and the binding [2] was “binds”.
